{
  "source": "PubChem BioAssay AID1347075",
  "about": "(National Center for Advancing Translational Sciences (NCATS), 2019)",
  "note": "The whole screen tested about 400,000 compounds, of which about 5,500 (1.4%) were called active. This list was built around the results that the source calls inconclusive (neither active nor inactive); the mix of calls is not that of the screen. Calls come from the whole dose curve; as a rule, active = well fitted cell-killing curve with a large enough effect; inconclusive = small, poorly fitted or top-dose-only effect, or effect the other way; inactive = flat fitted curve, though single readings scatter. Potencies of inconclusive entries are doubtful fits and often do not repeat. % is set by controls: 0 for no effect and ±100 for the full control effect; potency is the fitted concentration of half-maximal effect.",
  "data": [
    {"experiment": "qHTS assay for MDR1-selective chemotherapeutics: Primary screen using the parental adenocarcinoma cell KB-3-1; note: nearly all actives have a fitted effect of over 60% in size", "conditions": "KB-3-1 viability, CellTiter-Glo ATP luminescence, 72 h; activity change, negative = cytotoxic: at 46.1 µM (top of the series)", "outline": "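Here the drug-naive KB-3-1 line serves as comparator for MDR sub-line selectivity; cells received compound titrations, 72 h at 37 °C, then CellTiter-Glo readout.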", "values": [
      {"smiles": "CCCCn1c(SCC(=O)NC2CC2)nc2cc(C(=O)OC)ccc2c1=O", "Potency": "inactive"},
      {"smiles": "Cc1ccc(C2Oc3ccccc3C3=C2C(c2cccs2)n2ncnc2N3)cc1", "note": "(stereo not given)", "Potency": "active: 9.2 µM"},
      {"smiles": "CN1c2ccccc2-c2nc3ccccc3n2C1c1cccs1", "note": "(stereo not given)", "Potency": "inconclusive: 23.1 µM [cytotoxic, single point]"},
      {"smiles": "CCCCCn1c(SCC#N)nc2cc(C(=O)NCC3CCCO3)ccc2c1=O", "note": "(stereo not given)", "Potency": "inactive"},
      {"smiles": "O=C(Nc1nc(-c2ccccn2)cs1)c1ccc(-c2ccccc2F)o1", "Potency": "inconclusive: 29.1 µM [cytotoxic, single point]"},
      {"smiles": "Brc1ccc(/C=N/Nc2ncnc3c2cnn3Cc2ccccc2)cc1", "Potency": "inconclusive: 8.2 µM [cytotoxic, partial curve]"},
      {"smiles": "COc1ccc(C(=O)C(C)OC(=O)c2cccc(S(=O)(=O)Nc3cc(Cl)c(OC)cc3OC)c2)cc1", "note": "(stereo not given)", "Potency": "inactive"},
      {"smiles": "CCOC(=O)c1c(C)oc2c1c(C=NCc1ccccn1)c(O)c1ccccc12", "Potency": "inconclusive: 29.1 µM [cytotoxic, single point]"},
      {"smiles": "C=CCn1c(SCC(=O)Nc2cccnc2Cl)nnc1-c1ccccc1F", "Potency": "inactive"},
      {"smiles": "COc1ccc(NC(=O)Cc2ccc(Cl)c(Cl)c2)cn1", "Potency": "inactive"},
      {"smiles": "N#CCSc1nc2ccccc2c(=O)n1CCC(=O)NC1CCCCC1", "Potency": "inconclusive: 29.1 µM [rising, single point]"},
      {"smiles": "Cc1cc(C(=O)CN2C(=O)NC(CCS(C)(=O)=O)C2=O)c(C)n1C1CC1", "note": "(stereo not given)", "Potency": "inactive"},
      {"smiles": "COc1ccc(-c2csc3nc(C)nc(N4CCC(C)CC4)c23)cc1OC", "Potency": "inconclusive: 29.1 µM [cytotoxic, single point]"},
      {"smiles": "CC(C)(C)c1ccc(C2=CC(c3ccccc3F)n3ncnc3N2)cc1", "note": "(stereo not given)", "Potency": "inconclusive: 0.0231 µM [rising, full curve]"},
      {"smiles": "CSc1ccc(CCNC(=O)c2ccc3c(c2)nc2n3CCCCC2)cc1", "activity change, negative = cytotoxic": "inconclusive: -23.2%"},
      {"smiles": "CCOC(=O)Cn1c(=O)n(C2CCCCC2)c2nc(-c3ccc(OCC)cc3)nc(C(N)=O)c21", "Potency": "active: 18.4 µM"},
      {"smiles": "C[C@H](CO)N1C[C@H](C)[C@@H](CN(C)C)Oc2c(NC(=O)Cc3ccccc3)cccc2C1=O", "Potency": "inconclusive: 29.1 µM [cytotoxic, single point]"},
      {"smiles": "CCN(c1ccccc1)S(=O)(=O)c1ccc(Cl)c(NC(=O)CN(C)C2CCN(C)CC2)c1", "Potency": "inconclusive: 25.9 µM [cytotoxic, single point]"},
      {"smiles": "Cc1cccn2c(=O)nc(SCC(=O)NC3CCCC3)nc12", "Potency": "inactive"},
      {"smiles": "Cc1nnc(SCCn2c(N3CCC(C)CC3)nc3c2c(=O)n(C)c(=O)n3C)s1", "Potency": "inconclusive: 20.6 µM [rising, single point]"},
      {"smiles": "Cc1ccc(NC(=O)Nc2ccc3c(c2)N(C)C(=O)CS3)nc1", "Potency": "inconclusive: 6.51 µM [rising, partial curve]"},
      {"smiles": "O=C(COC(=O)c1ccc(-c2ccc([N+](=O)[O-])cc2)o1)NC(=O)NC12CC3CC(CC(C3)C1)C2", "Potency": "inconclusive: 29.1 µM [cytotoxic, single point]"},
      {"smiles": "O=C1CC(c2ccccc2)Cc2nc3nc(C(F)(F)F)nn3cc21", "note": "(stereo not given)", "Potency": "inactive"},
      {"smiles": "CN(C)/C=N/C1=C(C#N)C(c2cccs2)c2ccc3ccccc3c2O1", "note": "(stereo not given)", "Potency": "active: 2.59 µM"},
      {"smiles": "CC(C)Cn1c(CN2CCN(c3ccccc3F)CC2)nc2c1c(=O)[nH]c(=O)n2C", "Potency": "inconclusive: 29.1 µM [rising, single point]"},
      {"smiles": "O=C(Nc1ccc(Br)cc1)C1CCCN1S(=O)(=O)c1cccs1", "note": "(stereo not given)", "Potency": "inconclusive: 23.1 µM [cytotoxic, single point]"},
      {"smiles": "Cc1ccc(/C=N\\Nc2cn[nH]c(=O)c2Cl)cc1", "Potency": "active: 7.08 µM"},
      {"smiles": "COc1cc2c(cc1OC)C(COc1cc(C)cc(C)c1)N(C(C)=O)CC2", "note": "(stereo not given)", "Potency": "inactive"},
      {"smiles": "CCc1cccc(-n2nnc(-c3nsc(NC(=O)c4ccc(C)cc4)n3)c2C)c1", "Potency": "inactive"},
      {"smiles": "CC1=NN(c2ccccc2)C(=O)/C1=C/c1c(O)n(-c2ccc(F)cc2)[nH]c1=O", "Potency": "active: 20.6 µM"},
      {"smiles": "O=C(c1ccccc1-c1ccccc1)N1CCN(c2ccccn2)CC1", "Potency": "active: 2.59 µM"},
      {"smiles": "CCCCc1n(CC(=O)c2ccc(Cl)cc2)c2ccccc2[n+]1C", "Potency": "inconclusive: 23.1 µM [cytotoxic, single point]"},
      {"smiles": "COc1cccc(/C=N/NC(=O)CN(C)S(=O)(=O)c2ccccc2)c1OC", "Potency": "inconclusive: 23.1 µM [rising, partial curve, poor fit]"},
      {"smiles": "COC(=O)[C@@]1(Sc2ccc(C)cc2)CC(=O)N(c2ccccc2)[C@@H]1c1ccccc1", "Potency": "inconclusive: 29.1 µM [cytotoxic, single point]"},
      {"smiles": "CCc1cccc(NC(=O)Cn2cc(C=O)c3ccccc32)c1", "Potency": "inconclusive: 10.3 µM [cytotoxic, partial curve, poor fit]"},
      {"smiles": "Cc1ccc(-c2nnc(Nc3ccc4c(c3)OCO4)c3ccccc23)cc1S(=O)(=O)NC(C)C", "Potency": "inconclusive: 18.4 µM [cytotoxic, partial curve, poor fit]"},
      {"smiles": "CC(=O)OCCN1c2ccccc2Sc2cnccc21", "Potency": "active: 11.6 µM"},
      {"smiles": "O=C(NCCn1cc(SCc2ccccc2F)c2ccccc21)c1cccs1", "Potency": "inconclusive: 20.6 µM [cytotoxic, single point]"},
      {"smiles": "CCN(CC)CCNCC1C(=O)O[C@@H]2C[C@@]3(C)CCC[C@H](C)C3=C[C@H]12", "note": "(stereo not given in full)", "Potency": "inconclusive: 25.9 µM [cytotoxic, partial curve, poor fit]"},
      {"smiles": "Cc1ccc2c(c1)C(c1ccccc1)N(C(=O)c1ccc(S(=O)(=O)N3CCCCC3)cc1)CC(=O)N2", "note": "(stereo not given)", "Potency": "inconclusive: 20.6 µM [cytotoxic, single point]"},
      {"smiles": "O=C(CSc1nc2ccccc2o1)Nc1nc(-c2ccccc2)c(-c2ccccc2)s1", "Potency": "inconclusive: 18.4 µM [cytotoxic, single point]"},
      {"smiles": "O=C1NC(=O)/C(=C/c2ccc(-c3cc(C(=O)O)ccc3Cl)o2)S1", "Potency": "inactive"},
      {"smiles": "CCn1c(C)cs/c1=N\\S(=O)(=O)c1ccccc1", "Potency": "inactive"},
      {"smiles": "CS(=O)(=O)c1nc(S(=O)(=O)c2ccc(Cl)cc2)c(N2CCOCC2)s1", "Potency": "inconclusive: 29.1 µM [cytotoxic, single point]"},
      {"smiles": "Cc1ccc(C(=O)Nc2ccc3c(c2)CCC3)o1", "Potency": "inactive"},
      {"smiles": "COc1cc(/C=C(/C#N)c2nc3ccccc3[nH]2)ccc1OCC(=O)Nc1ccccc1C", "Potency": "inconclusive: 29.1 µM [cytotoxic, single point]"},
      {"smiles": "CC1=NOC(=O)/C1=C/c1ccc(O)cc1", "Potency": "inactive"},
      {"smiles": "CCC1(CCC(C)C)SC(N)=NC1=O", "note": "(stereo not given)", "Potency": "inactive"},
      {"smiles": "CCCCn1c(N)c(N(CC(C)C)C(=O)c2ccc(C)o2)c(=O)[nH]c1=O", "Potency": "inactive"},
      {"smiles": "COc1cccc2sc(Nc3nc(-c4cc5ccccc5oc4=O)cs3)nc12", "Potency": "inconclusive: 2.06 µM [cytotoxic, full curve, poor fit]"},
      {"smiles": "COCCN(C(=O)c1csnn1)C(C(=O)NC1CCCCC1)c1ccc(Cl)cc1", "note": "(stereo not given)", "Potency": "inconclusive: 29.1 µM [rising, partial curve, poor fit]"},
      {"smiles": "COc1ccc(NC(=O)COC(=O)CCCC2=NS(=O)(=O)c3ccccc3N2)cc1Cl", "Potency": "inactive"},
      {"smiles": "Cc1onc(-c2c(F)cccc2Cl)c1C(=O)OCC(=O)NC(N)=O", "Potency": "inconclusive: 29.1 µM [cytotoxic, single point]"},
      {"smiles": "CSc1ccc(CN(C)C(=O)c2cc(S(=O)(=O)NCc3ccccc3)ccc2C)cc1", "Potency": "inconclusive: 29.1 µM [cytotoxic, single point]"},
      {"smiles": "Cc1cc(C(=O)N[C@H](c2ccccc2)[C@@]2(C)C[C@@H]2[C@@H](C)C(=O)Nc2ccc3ccccc3c2)no1", "Potency": "inconclusive: 20.6 µM [cytotoxic, single point]"},
      {"smiles": "CCc1ccc(CN(C)C(=O)c2cc(S(=O)(=O)N3CCN(CC)CC3)ccc2Cl)cc1", "Potency": "inconclusive: 7.31 µM [cytotoxic, partial curve]"},
      {"smiles": "Cc1ccc(NC(=O)Nc2nc3ccccc3s2)cc1NC(=O)Nc1nc2ccccc2s1", "Potency": "inactive"},
      {"smiles": "COc1cc(-c2nc(-c3ccccc3)c(-c3cc([N+](=O)[O-])ccc3C)[nH]2)cc(OC)c1OC", "Potency": "inconclusive: 29.1 µM [cytotoxic, single point]"},
      {"smiles": "Cc1ccc(NC(=O)c2cncc(Br)c2)cc1S(=O)(=O)N(C)C", "Potency": "inactive"},
      {"smiles": "O=C(Nc1ccccc1SCC1CSc2nc3ccccc3c(=O)n21)c1cccc(Cl)c1", "note": "(stereo not given)", "Potency": "inconclusive: 8.2 µM [cytotoxic, partial curve, poor fit]"},
      {"smiles": "CC1CCN(C(C(=O)Nc2ccc(C(C)C)cc2)c2ccc3c(c2)OCO3)CC1", "note": "(stereo not given)", "Potency": "inconclusive: 7.31 µM [cytotoxic, partial curve, poor fit]"},
      {"smiles": "Cc1ccc(N2C(=O)NC(NS(=O)(=O)c3ccccc3)(C(F)(F)F)C2=O)cc1", "note": "(stereo not given)", "Potency": "inconclusive: 5.8 µM [rising, full curve, poor fit]"},
      {"smiles": "CCOc1ccccc1NC(=O)c1cc2cc(C)ccc2n1C", "Potency": "inconclusive: 20.6 µM [cytotoxic, single point]"},
      {"smiles": "Cc1cccc(Cc2nc3ccccc3[nH]2)c1", "Potency": "inactive"},
      {"smiles": "O=C(Nc1ccc2sc3ccccc3c(=O)c2c1)c1ccccc1Cl", "Potency": "inconclusive: 29.1 µM [cytotoxic, single point]"},
      {"smiles": "COC(=O)c1[nH]c2c(c1C)C(=O)CC(c1cccc(OC)c1)C2", "note": "(stereo not given)", "Potency": "inconclusive: 0.731 µM [cytotoxic, full curve, poor fit]"},
      {"smiles": "Cc1cc(C(=O)CN2C(=O)C(=O)N(C3CCCC3)C2=O)c(C)n1CCc1ccccc1", "Potency": "inconclusive: 20.6 µM [cytotoxic, single point]"},
      {"smiles": "Cc1ccsc1C(=O)Nc1nccs1", "Potency": "inactive"},
      {"smiles": "O=c1c2ccccc2nc(/C=C/c2c[nH]c3ccccc23)n1CCO", "Potency": "inactive"},
      {"smiles": "CCN(CC)S(=O)(=O)c1cc(NC(=O)CCCOc2ccc(C(C)=O)cc2)ccc1C", "Potency": "inconclusive: 29.1 µM [cytotoxic, single point]"}
    ]}
  ]
}
